The record followed here is PubChem BioAssay AID504594 (Broad Institute, 2011).

“And” between values parts separate entries of the source, which are not always exact repeats. Equal values may be shown once. Hit rate of the full screen: of about 2,000 compounds, fewer than 10 were called active.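 The calls were made as follows: active = growth inhibition of at least 75% in every replicate, which also brings the mean inhibition to 75% or more; inconclusive = mean inhibition 75% or more but some replicate under 75%; inactive = the rest.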 Some of the results follow.

The assay can be described thus: growth inhibition of PfHsp90-dependent yeast, primary screen, antimalarial PfHsp90 inhibitor project, S. cerevisiae, BacTiter-Glo luminescence (AID 504594).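 Also: 0% = DMSO neutral control wells and 100% = 20 µM radicicol control wells; higher value means stronger growth inhibition because the sign is flipped.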 Particulars: S. cerevisiae expressing PfHsp90, BacTiter-Glo growth, 48 h; at 9.4 µM; active compounds read high.
Regarding `CC(=O)[C@@]1(O)CC[C@H]2[C@@H]3C[C@H](C)C4=CC(=O)C=C[C@]4(C)[C@@]3(F)[C@@H](O)C[C@@]21C`, the growth inhibition was inactive: 4.15%. As to `CCc1nc(N)nc(N)c1-c1ccc(Cl)cc1`, the growth inhibition was inactive: 7.83%.

`O=C(NCCc1cccc(F)c1)[C@@H]1CSC2c3ccccc3C(=O)N21` (some centres undefined): the growth inhibition is inactive: 3.04%. As for `CC(C)NCC(O)COc1ccc(CCOCC2CC2)cc1` (centres undefined), the figure is inactive: -15.4%; as for `CCOc1ccc2ccccc2c1C(=O)N[C@@H]1C(=O)N2[C@@H]1SC(C)(C)[C@@H]2C(=O)O`, inactive: -3.92%. Then `CCCC(=O)O[C@]1(C(=O)CCl)[C@@H](C)C[C@H]2[C@@H]3CCC4=CC(=O)C=C[C@]4(C)[C@@]3(F)C(=O)C[C@@]21C`, with inactive: -2.71%; and `CCN(CC)CCNC(=O)c1cc(Cl)c(N)cc1OC`, with inactive: -0.117%. As for `Cn1c(=O)c2c(nc(SCCN3CCCCC3)n2C)n(C)c1=O`, the figure is inactive: -0.0425%. On to `COc1cc2c(cc1OC)C1(CCCC1)CNC2c1cccc([N+](=O)[O-])c1` (centres undefined), for which the growth inhibition was inactive: -7.37%. Turning to `[N-]=[N+]=NC1C[C@H](n2ccc(=O)[nH]c2=O)O[C@@H]1CO` (some centres undefined), the growth inhibition was inactive: -3.51%. For `CCc1ccc(/C=C2\Oc3cc(OC(=O)N4CCOCC4)ccc3C2=O)cc1`, the growth inhibition was inactive: -8.25%. As for `CC1=NN(c2ccccc2)C(=O)C1`, the figure is inactive: 1.75%; as for `COc1ccc(S(=O)(=O)NCc2ccco2)c2ccccc12`, inactive: -1.2%. Then `COc1ccc(CCNC(=O)c2c(O)c3c([nH]c2=O)CCCC3)cc1`, with inactive: -3.5%; and `O=C(O)CCNC(=O)c1ccccc1`, with inactive: 0.443%. As for `Cc1oc2c(O)c(O)ccc2c(=O)c1-c1ccccc1`, the figure is inactive: 10.8%; as for `CC(C)CCn1c(N2CCc3ccccc3C2)nc2c1c(=O)[nH]c(=O)n2C`, inactive: 1.4%; as for `c1ccc(Nc2ccccn2)nc1`, inactive: 9.43%.

On to `CC(C)[N+](C)(CCOC(=O)C1c2ccccc2Oc2ccccc21)C(C)C`, for which the growth inhibition was inactive: 6.68%. As for `c1cc2c(cc1C1CCCCC1)c1c3n2CCN=C3CCC1`, the figure is inactive: 9.82%. Consider `Cc1ccc2c(c1C)NC(C(=O)O)C1CC=CC21` (centres undefined), for which the growth inhibition is inactive: -5.37%. Then `COc1cccc2c1C(=O)O/C2=C/c1ccc2c(c1)OCO2`, with inactive: -11.7%; and `CC(C)CC(=O)Nc1ccc2oc(-c3ccncc3)nc2c1`, with inactive: -1.92%; and `CCN(Cc1ccncc1)Cc1nc(Cc2ccccc2Cl)no1`, with inactive: 11.7%.

For `NS(=O)(=O)c1cc2c(cc1Cl)NC(C(Cl)Cl)NS2(=O)=O` (centres undefined), the growth inhibition is inactive: -15.3%. For the compound `COc1cccc(N2CC(O)=C(c3nc4ccccc4c(=O)[nH]3)C2=N)c1`, the growth inhibition was inactive: 10.7%. Then `C[C@H](NC(=O)OC(C)(C)C)C(=O)NCC1CCC(C(=O)O)CC1` (some centres undefined), with inactive: 9.54%; and `NC(N)=NC(=O)Cc1c(Cl)cccc1Cl`, with inactive: 2.04%; and `CC/C(=C(\c1ccc(O)cc1)c1ccc(OCCN(C)C)cc1)c1ccccc1`, with inactive: 4.47%. Regarding `COc1ccc(OC)c(S(=O)(=O)N2CCCc3ccccc32)c1`, the growth inhibition was inactive: -0.0448%. As for `NCCc1cnc[nH]1`, the figure is inactive: 5.58% and inactive: -11.8%; as for `NCCCC(=O)O`, inactive: -3.11%. In the case of `O=C(c1ccccc1)N1CCN(C(=O)c2ccccc2)CC1`, the growth inhibition is inactive: 2.86%. As to `COc1ccc2[nH]c3c(=O)n(/N=C/[C@H]4C(C)C=C(C)CC4C)c(=O)[nH]c3c2c1` (some centres undefined), the growth inhibition was inactive: 1.84%. As for `COc1cc2c(cc1OC)C(c1cc(OC)c(OC)c(OC)c1)NCC2` (centres undefined), the figure is inactive: 11.1%; as for `CN(C)C(=O)C(CCN1CCC(O)(c2ccc(Cl)cc2)CC1)(c1ccccc1)c1ccccc1`, inactive: 2.45%; as for `CSCCC(NC(=O)OC(C)(C)C)C(=O)Oc1ccc2c(=O)c(-c3ccc4c(c3)OCCO4)coc2c1` (centres undefined), inactive: -2.29%.

`CC(C(=O)O)c1ccc(-c2ccccc2)c(F)c1` (centres undefined): the growth inhibition is inactive: -7.02%. Turning to `C=CCOc1ccc(C(=O)CC)cc1OC`, the growth inhibition is inactive: -12.7%.

With `Cn1c(=O)[nH]c2nnc(-c3ccc(Cl)c(Cl)c3)nc2c1=O`, the growth inhibition was inactive: 1.34%.

With `Cn1c(=O)c2nc3ccccc3nc2n(C)c1=O`, the growth inhibition is inactive: -2.91%. Turning to `O=P(O)(O)CP(=O)(O)O`, the growth inhibition was inactive: 0.855%. On to `COc1ccc(/C=N\NC(=O)CCc2c(C)n[nH]c2C)c(OC)c1OC`, for which the growth inhibition is inactive: 7.63%. Turning to `O=C(CCCC(=O)OCC1CCCO1)OCC1CCCO1` (centres undefined), the growth inhibition is inactive: -10.2%.

Turning to `Cc1cc(=O)oc(C)c1C(=O)NCCC(C)C`, the growth inhibition was inactive: 1.5%. Then `CC(=O)N1N=C(c2cccs2)CC1c1ccc(C)o1` (centres undefined), with inactive: 15.9%; and `O=C(Cc1c[nH]c2ccccc12)OCCOC(=O)Cc1c[nH]c2ccccc12`, with inactive: -5.62%; and `Cc1ccc(Nc2ncccc2C(=O)O)cc1C`, with inactive: -4.41%.

Take `O=C(CCCCCCCC(=O)c1ccccc1)c1ccccc1`: the growth inhibition was inactive: -4.37%. On to `Cc1cc(=O)[nH]c(=S)[nH]1`, for which the growth inhibition is inactive: 5.04%. Then `C=C(C)Cn1c(NCCOC)nc2c1c(=O)[nH]c(=O)n2C`, with inactive: -4.19%; and `COc1cc2c(cc1OC)/C(=C/c1ccc(Cl)cc1)C(=O)OC2`, with inactive: -9.89%; and `CC(=O)c1ccc(CCCCCCCCCC(=O)O)s1`, with inactive: -16.6%. Then `COc1ccc(/C=C/C(=O)Nc2ccccc2C(=O)O)cc1OC`, with inactive: 6.71%.

Turning to `COC(=O)c1cc(-c2ccc(OC)c(OC)c2)on1`, the growth inhibition was inactive: -8.12%. In the case of `COC(=O)c1[nH]c(=O)c2ccccc2c1O`, the growth inhibition is inactive: -11.7%. As for `CC(=O)N/C(=C/c1ccc2c(c1)OCO2)C(=O)NCCO`, the figure is inactive: -2.13%; as for `CCc1nc2ccccc2c(NC(=O)CN2CC(C)CC(C)C2)c1C` (centres undefined), inactive: 2.78%.

Turning to `Oc1ccc(/C=C/c2cc(O)cc(O)c2)cc1`, the growth inhibition was inactive: -1.18%. Then `CNc1nc(Nc2ccccc2)nc(OCC(F)(F)F)n1`, with inactive: 11.7%. As for `COc1cccc(OC)c1C(=O)NCCSC1CCCCC1`, the figure is inactive: -5.91%. `COc1ccc(C(=O)/C=C2/c3ccccc3CC(C)(C)N2C)cc1`: the growth inhibition was inactive: -6.13%.

Turning to `O=C(CCC(=O)NCCO)NCCO`, the growth inhibition was inactive: -11.6%. As for `Oc1c(Cl)cc(Cl)c(Cl)c1Cc1c(O)c(Cl)cc(Cl)c1Cl`, the figure is active: 104%.
